Values quoted from earlier work in paper PMC3720659, “Integrated Analysis of Drug-Induced Gene Expression Profiles Predicts Novel hERG Inhibitors” (PLoS ONE, 2013).

System: hERG current
Conditions: cited from earlier work; call rule not given here

Row | Compound | Annotation (hERG Active / Inactive) | Annotation (hERG inhibition class, Active/Inactive by IC50)
1 | O=C1OCCN1/N=C/c1ccc([N+](=O)[O-])o1 [furazolidone] | Inactive | –
2 | Nc1nc2ccc(OC(F)(F)F)cc2s1 [riluzole] | – | Inactive
